Results reported in the supplement of paper PMC6411743.
± gives the standard deviation of the averaged measurements. The list shows a part of the results, in another mix than the full data.

Protein sequences, listed by entry. Tags and fused reporters are not part of them. Lines headed by an entry give the natural chain unless they say otherwise; changes in a name come on top.
UniProt Q96J01: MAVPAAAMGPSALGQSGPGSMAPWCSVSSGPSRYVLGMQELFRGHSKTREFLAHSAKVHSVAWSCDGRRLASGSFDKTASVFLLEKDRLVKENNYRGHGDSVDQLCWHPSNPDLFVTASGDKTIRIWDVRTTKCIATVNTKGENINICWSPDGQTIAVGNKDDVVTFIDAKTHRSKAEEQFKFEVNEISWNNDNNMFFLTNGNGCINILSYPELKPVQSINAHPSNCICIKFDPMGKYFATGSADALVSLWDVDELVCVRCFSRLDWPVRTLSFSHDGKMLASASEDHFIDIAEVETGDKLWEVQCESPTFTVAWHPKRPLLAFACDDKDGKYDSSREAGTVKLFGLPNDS
UniProt Q96EU6: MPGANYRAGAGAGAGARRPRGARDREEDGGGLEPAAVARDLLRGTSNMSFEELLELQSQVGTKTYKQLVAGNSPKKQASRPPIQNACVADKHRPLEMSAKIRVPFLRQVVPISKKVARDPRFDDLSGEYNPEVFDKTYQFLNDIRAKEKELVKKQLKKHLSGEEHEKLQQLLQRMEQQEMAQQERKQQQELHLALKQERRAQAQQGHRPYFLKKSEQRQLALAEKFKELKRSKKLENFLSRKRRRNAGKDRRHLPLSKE
UniProt Q96Q11: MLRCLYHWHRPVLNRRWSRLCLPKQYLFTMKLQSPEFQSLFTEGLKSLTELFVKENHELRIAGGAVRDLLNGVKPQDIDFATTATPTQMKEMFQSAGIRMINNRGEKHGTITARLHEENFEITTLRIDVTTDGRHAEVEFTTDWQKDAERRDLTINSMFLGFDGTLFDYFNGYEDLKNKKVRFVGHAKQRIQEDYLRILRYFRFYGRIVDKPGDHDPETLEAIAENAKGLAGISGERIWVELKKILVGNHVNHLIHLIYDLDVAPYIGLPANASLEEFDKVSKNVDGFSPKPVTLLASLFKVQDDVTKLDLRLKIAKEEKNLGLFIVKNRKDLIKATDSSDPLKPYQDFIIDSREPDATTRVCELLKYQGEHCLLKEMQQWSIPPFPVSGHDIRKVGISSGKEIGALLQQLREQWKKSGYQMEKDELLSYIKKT
UniProt Q96GG9: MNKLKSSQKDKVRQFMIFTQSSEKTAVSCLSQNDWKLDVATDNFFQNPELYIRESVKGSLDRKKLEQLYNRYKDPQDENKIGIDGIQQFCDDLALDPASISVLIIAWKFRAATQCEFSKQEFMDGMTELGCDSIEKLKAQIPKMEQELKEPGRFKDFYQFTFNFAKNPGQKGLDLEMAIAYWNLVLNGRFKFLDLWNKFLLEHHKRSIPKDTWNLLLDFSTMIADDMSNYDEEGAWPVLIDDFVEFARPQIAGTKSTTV
UniProt Q96T21: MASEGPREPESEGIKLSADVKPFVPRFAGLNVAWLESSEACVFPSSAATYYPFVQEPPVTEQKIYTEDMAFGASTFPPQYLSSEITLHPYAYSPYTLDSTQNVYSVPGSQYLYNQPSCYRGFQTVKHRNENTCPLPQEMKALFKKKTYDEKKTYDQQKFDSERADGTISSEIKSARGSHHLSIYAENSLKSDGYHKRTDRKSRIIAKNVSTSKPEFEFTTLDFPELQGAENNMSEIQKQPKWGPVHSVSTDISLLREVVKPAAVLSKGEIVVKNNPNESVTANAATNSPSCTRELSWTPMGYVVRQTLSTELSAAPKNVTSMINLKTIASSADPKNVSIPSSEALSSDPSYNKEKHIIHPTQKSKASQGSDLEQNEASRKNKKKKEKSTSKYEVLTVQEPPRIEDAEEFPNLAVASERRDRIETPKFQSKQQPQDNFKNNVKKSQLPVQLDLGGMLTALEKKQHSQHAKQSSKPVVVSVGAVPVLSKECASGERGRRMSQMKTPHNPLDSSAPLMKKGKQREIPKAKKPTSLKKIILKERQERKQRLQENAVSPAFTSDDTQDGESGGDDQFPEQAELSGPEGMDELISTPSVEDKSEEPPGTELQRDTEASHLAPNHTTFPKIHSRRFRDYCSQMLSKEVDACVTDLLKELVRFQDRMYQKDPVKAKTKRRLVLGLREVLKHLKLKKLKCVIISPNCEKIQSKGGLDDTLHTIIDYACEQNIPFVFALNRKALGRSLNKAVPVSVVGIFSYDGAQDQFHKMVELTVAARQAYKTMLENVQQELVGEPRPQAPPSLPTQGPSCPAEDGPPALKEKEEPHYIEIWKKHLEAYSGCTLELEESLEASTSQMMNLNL
UniProt Q96FH0: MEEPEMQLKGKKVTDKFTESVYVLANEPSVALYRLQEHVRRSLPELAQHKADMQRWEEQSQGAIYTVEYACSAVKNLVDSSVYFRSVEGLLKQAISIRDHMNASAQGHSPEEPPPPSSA
UniProt Q96CB8, whole entry: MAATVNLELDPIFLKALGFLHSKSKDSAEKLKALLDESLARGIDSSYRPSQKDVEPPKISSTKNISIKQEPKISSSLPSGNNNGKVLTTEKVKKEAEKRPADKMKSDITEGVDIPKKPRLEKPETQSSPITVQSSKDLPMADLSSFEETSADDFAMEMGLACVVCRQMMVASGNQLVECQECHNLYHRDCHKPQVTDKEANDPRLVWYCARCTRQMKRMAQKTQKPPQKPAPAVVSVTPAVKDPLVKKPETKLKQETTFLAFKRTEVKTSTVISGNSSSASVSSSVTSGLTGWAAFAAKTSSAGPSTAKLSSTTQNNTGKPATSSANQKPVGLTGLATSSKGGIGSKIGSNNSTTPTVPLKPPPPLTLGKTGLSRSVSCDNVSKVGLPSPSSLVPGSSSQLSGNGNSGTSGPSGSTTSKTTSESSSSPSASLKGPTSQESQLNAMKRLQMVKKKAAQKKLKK
UniProt Q96SK2: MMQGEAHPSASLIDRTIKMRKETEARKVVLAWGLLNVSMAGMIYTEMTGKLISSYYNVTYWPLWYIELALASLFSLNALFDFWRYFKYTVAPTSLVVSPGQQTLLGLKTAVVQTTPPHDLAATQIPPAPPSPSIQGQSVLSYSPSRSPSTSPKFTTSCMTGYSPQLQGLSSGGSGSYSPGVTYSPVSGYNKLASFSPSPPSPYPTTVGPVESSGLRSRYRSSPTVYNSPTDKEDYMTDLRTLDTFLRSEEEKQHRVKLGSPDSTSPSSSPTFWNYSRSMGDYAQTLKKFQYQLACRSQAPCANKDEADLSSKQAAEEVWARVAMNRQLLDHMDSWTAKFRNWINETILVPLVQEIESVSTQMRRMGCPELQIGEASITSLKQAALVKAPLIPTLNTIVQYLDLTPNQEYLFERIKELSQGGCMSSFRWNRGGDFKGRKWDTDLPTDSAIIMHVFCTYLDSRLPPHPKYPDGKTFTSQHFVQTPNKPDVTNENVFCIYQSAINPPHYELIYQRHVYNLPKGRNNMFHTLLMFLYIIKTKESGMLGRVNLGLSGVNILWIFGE
UniProt Q96J02: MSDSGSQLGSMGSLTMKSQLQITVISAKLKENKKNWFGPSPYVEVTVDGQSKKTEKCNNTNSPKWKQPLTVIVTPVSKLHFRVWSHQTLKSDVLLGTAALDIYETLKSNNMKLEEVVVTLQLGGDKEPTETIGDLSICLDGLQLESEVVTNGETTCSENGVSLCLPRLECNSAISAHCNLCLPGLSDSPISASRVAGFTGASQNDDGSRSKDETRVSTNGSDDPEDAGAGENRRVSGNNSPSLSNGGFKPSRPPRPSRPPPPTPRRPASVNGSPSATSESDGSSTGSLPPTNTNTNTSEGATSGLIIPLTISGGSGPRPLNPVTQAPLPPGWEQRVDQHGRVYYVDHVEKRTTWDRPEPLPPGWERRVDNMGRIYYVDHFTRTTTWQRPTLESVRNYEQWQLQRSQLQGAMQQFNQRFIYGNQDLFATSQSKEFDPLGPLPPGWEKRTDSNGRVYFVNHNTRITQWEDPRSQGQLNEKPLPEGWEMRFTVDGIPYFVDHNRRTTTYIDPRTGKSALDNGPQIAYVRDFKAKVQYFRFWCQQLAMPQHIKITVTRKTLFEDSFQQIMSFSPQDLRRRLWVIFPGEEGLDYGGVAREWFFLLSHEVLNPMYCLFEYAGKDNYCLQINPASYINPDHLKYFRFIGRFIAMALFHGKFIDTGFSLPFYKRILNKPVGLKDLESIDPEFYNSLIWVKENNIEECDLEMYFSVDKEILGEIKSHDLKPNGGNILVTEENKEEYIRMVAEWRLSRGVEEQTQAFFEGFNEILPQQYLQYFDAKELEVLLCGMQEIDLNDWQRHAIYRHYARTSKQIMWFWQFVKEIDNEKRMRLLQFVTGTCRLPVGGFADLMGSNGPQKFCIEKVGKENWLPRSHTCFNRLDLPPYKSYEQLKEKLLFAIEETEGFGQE
UniProt Q96I24: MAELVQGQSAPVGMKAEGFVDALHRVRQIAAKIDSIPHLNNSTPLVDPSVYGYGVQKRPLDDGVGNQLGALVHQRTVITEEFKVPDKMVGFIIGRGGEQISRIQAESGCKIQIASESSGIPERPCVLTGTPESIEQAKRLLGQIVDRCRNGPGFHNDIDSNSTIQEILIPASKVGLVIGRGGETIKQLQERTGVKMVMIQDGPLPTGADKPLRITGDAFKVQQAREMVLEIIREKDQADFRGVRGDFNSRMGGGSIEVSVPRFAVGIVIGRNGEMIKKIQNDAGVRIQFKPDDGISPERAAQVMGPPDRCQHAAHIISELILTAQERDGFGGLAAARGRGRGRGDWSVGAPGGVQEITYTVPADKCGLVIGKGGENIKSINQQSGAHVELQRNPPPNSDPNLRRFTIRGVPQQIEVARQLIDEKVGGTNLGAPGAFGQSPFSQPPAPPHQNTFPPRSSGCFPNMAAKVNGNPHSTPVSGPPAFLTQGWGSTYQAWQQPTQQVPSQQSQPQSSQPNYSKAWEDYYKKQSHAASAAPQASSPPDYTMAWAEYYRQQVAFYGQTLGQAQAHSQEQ
UniProt Q96EI5: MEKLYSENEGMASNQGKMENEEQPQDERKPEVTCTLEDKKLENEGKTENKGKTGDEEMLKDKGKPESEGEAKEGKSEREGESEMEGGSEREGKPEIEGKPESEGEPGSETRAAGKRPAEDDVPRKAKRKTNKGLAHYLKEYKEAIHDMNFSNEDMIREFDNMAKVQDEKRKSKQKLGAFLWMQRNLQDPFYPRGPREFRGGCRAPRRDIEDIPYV
UniProt Q96HR9: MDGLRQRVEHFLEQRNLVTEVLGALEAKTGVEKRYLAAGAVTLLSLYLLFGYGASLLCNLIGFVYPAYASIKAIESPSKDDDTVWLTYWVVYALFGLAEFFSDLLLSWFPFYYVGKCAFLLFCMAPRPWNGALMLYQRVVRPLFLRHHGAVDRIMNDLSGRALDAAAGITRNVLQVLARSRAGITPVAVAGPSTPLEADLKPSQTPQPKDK
UniProt Q96GW9: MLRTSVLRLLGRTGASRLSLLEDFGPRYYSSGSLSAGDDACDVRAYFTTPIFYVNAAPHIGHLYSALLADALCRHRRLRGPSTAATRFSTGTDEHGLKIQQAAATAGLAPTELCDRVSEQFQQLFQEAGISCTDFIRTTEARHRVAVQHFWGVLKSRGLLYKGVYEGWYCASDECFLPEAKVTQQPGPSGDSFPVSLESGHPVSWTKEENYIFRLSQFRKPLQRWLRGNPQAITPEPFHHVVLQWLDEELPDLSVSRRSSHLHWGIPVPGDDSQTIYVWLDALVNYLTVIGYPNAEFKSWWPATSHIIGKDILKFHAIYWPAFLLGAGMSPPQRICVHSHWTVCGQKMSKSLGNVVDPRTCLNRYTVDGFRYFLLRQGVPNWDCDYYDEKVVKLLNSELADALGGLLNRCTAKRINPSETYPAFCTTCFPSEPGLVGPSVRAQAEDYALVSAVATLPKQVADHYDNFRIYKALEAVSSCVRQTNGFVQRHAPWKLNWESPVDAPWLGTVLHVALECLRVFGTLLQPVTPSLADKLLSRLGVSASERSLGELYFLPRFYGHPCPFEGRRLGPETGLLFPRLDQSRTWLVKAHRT
UniProt Q96JG8: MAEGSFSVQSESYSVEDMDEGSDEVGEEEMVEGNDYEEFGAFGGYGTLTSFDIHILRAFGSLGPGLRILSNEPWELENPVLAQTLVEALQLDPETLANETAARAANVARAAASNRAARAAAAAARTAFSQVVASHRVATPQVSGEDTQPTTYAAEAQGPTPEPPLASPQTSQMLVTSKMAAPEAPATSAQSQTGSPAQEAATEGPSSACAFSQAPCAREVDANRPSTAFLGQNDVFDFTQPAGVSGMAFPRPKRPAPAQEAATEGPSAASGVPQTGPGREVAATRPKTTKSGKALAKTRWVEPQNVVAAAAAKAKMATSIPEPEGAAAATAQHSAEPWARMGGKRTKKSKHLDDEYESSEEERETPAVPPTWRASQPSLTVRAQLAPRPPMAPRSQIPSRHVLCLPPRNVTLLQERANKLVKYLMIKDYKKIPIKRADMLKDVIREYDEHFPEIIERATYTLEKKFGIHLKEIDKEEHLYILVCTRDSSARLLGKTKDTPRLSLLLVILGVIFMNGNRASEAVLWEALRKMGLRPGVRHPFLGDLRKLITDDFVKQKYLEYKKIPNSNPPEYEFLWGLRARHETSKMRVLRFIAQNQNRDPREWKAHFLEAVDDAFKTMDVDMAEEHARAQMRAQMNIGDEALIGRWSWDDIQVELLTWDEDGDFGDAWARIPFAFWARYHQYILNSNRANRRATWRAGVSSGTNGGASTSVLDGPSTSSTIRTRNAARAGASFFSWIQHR

Compound: Nc1ncnc2c1ncn2[C@@H]1O[C@H](COP(=O)(O)OP(=O)(O)OP(=O)(O)O)[C@@H](O)[C@H]1O [adenosine triphosphate]
Test: NP40-soluble protein abundance relative to vehicle (solubility fold change) (ratio); higher = more soluble protein in presence of ATP
Outline: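 Jurkat crude lysate prepared with a Dounce homogeniser was treated at eight concentrations spanning 0.1 to 10 mM, 10 min at room temperature then 3 min at 37 °C. Solubilisation with 0.8% NP40 and benzonase and ultracentrifugation preceded TMT labelling of the supernatant for LC-MS/MS. Fold change against the detergent-processed vehicle was determined per replicate from vsn-normalised intensities, across three independent experiments.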

Target	NP40-soluble protein abundance (concentration: 1mM)	NP40-soluble protein abundance (concentration: 2mM)	NP40-soluble protein abundance (concentration: 4mM)	NP40-soluble protein abundance (concentration: 6mM)	NP40-soluble protein abundance (concentration: 8mM)	NP40-soluble protein abundance (concentration: 10mM)
ALKBH3 (UniProt Q96Q83)	0.986 ± 0.028	1.01 ± 0.013	1.02 ± 0.018	1 ± 0.052	1 ± 0.042	1.01 ± 0.065
UniProt Q96HA7 and related entries	1.03 ± 0.021	1.03 ± 0.083	1.07 ± 0.12	1.09 ± 0.12	1.06 ± 0.1	1.13 ± 0.11
SPEN (UniProt Q96T58)	1.12 ± 0.043	1.16 ± 0.053	1.2 ± 0.047	1.27 ± 0.078	1.25 ± 0.018	1.3 ± 0.022
NUDT11 (UniProt Q96G61)	1.01 ± 0.042	0.986 ± 0.034	0.975 ± 0.053	0.975 ± 0.063	1.01 ± 0.06	0.928 ± 0.025
UniProt Q96DB5	0.97 ± 0.067	0.987 ± 0.041	0.967 ± 0.054	0.923 ± 0.04	0.946 ± 0.067	0.954 ± 0.024
THOC3 (UniProt Q96J01)	1.17 ± 0.12	1.16 ± 0.086	1.18 ± 0.1	1.26 ± 0.081	1.36 ± 0.14	1.33 ± 0.067
LENG1 (UniProt Q96BZ8)	0.922 ± 0.056	0.98 ± 0.094	1.13 ± 0.085	1.24 ± 0.053	1.29 ± 0.23	1.17 ± 0.44
UniProt Q96RU2-2	1.03 ± 0.071	0.939 ± 0.029	0.951 ± 0.053	0.999 ± 0.052	1 ± 0.069	0.985 ± 0.025
UniProt Q96GY0	0.851 ± 0.12	0.867 ± 0.051	0.907 ± 0.023	0.927 ± 0.029	0.898 ± 0.059	0.891 ± 0.061
UniProt Q96EU6 and related entries	0.97 ± 0.011	0.978 ± 0.016	1.05 ± 0.096	1.06 ± 0.049	1.03 ± 0.1	1.03 ± 0.016
UniProt Q96Q11 and related entries	0.963 ± 0.031	0.979 ± 0.036	0.953 ± 0.031	0.967 ± 0.073	0.945 ± 0.035	0.965 ± 0.019
UniProt Q96PE3 and related entries	1.03 ± 0.076	1 ± 0.073	1.02 ± 0.077	0.935 ± 0.098	1.03 ± 0.053	1 ± 0.041
LRRC58 (UniProt Q96CX6)	0.949 ± 0.035	0.934 ± 0.022	0.98 ± 0.026	0.936 ± 0.029	0.905 ± 0.033	0.9095 ± 0.0077
ATG2B (UniProt Q96BY7)	0.864 ± 0.036	0.894 ± 0.034	0.991 ± 0.026	1.06 ± 0.041	1.07 ± 0.019	1.09 ± 0.055
UniProt Q96BN2	0.97 ± 0.027	1.05 ± 0.043	1.05 ± 0.045	1.05 ± 0.067	1.07 ± 0.049	1.05 ± 0.055
UniProt Q96EM0	0.964 ± 0.015	1 ± 0.071	0.99 ± 0.057	0.957 ± 0.08	0.99 ± 0.12	0.996 ± 0.086
UniProt Q96EY5	1.01 ± 0.05	1.045 ± 0.0099	1.06 ± 0.028	1.01 ± 0.038	1.06 ± 0.046	1.04 ± 0.026
UniProt Q96L91 and related entries	1.04 ± 0.039	1.05 ± 0.088	1.06 ± 0.082	1.08 ± 0.14	1.11 ± 0.097	1.13 ± 0.1
RANBP9 (UniProt Q96S59)	1.024 ± 0.0092	0.9622 ± 0.0078	0.983 ± 0.012	0.93 ± 0.08	0.962 ± 0.042	0.976 ± 0.054
DCUN1D1 (UniProt Q96GG9)	0.989 ± 0.036	0.979 ± 0.035	0.925 ± 0.05	0.969 ± 0.041	0.939 ± 0.076	0.922 ± 0.048
UniProt Q96HI0 and related entries	1.02 ± 0.056	0.9525 ± 0.0094	1.05 ± 0.096	0.8897 ± 0.004	0.948 ± 0.042	0.886 ± 0.029
COG3 (UniProt Q96JB2)	1.05 ± 0.16	0.986 ± 0.11	1.03 ± 0.12	0.957 ± 0.14	0.964 ± 0.043	0.989 ± 0.085
UniProt Q96P47 and related entries	1.04 ± 0.043	1.08 ± 0.09	1.17 ± 0.087	1.11 ± 0.1	1.2 ± 0.29	1.16 ± 0.26
UniProt Q96T21 and related entries	0.982 ± 0.028	0.969 ± 0.072	0.97 ± 0.082	0.974 ± 0.1	1.01 ± 0.052	1.04 ± 0.089

Target	NP40-soluble protein abundance (concentration: 1mM)	NP40-soluble protein abundance (concentration: 2mM)	NP40-soluble protein abundance (concentration: 4mM)	NP40-soluble protein abundance (concentration: 6mM)	NP40-soluble protein abundance (concentration: 8mM)	NP40-soluble protein abundance (concentration: 10mM)
UniProt Q96JC1 and related entries	0.965 ± 0.16	0.986 ± 0.084	1.04 ± 0.087	0.887 ± 0.13	0.971 ± 0.11	1.03 ± 0.043
UniProt Q96FH0 and related entries	0.902 ± 0.026	0.896 ± 0.065	1.06 ± 0.084	0.94 ± 0.097	0.887 ± 0.057	0.854 ± 0.028
UniProt Q96CB8 and related entries	1.01 ± 0.059	1.05 ± 0.054	1.12 ± 0.046	1.21 ± 0.15	1.23 ± 0.056	1.28 ± 0.12
UniProt Q96SK2 and related entries	1.06 ± 0.044	1.04 ± 0.051	1.1 ± 0.078	1.15 ± 0.046	1.17 ± 0.026	1.2 ± 0.054
PAWR (UniProt Q96IZ0)	0.964 ± 0.066	0.98 ± 0.012	0.984 ± 0.035	1.02 ± 0.035	0.965 ± 0.052	0.927 ± 0.069
ZC3H10 (UniProt Q96K80)	1.01 ± 0.037	1.03 ± 0.021	1.02 ± 0.11	1.11 ± 0.12	0.885 ± 0.086	0.951 ± 0.063
UniProt Q96J02 and related entries	1.13 ± 0.046	1.13 ± 0.054	1.13 ± 0.023	1.06 ± 0.081	1.15 ± 0.043	1.14 ± 0.041
UniProt Q96IQ9-2|Q96IQ9	0.9572 ± 0.0015	1.02 ± 0.013	0.973 ± 0.058	0.977 ± 0.054	0.951 ± 0.017	0.958 ± 0.036
FUBP3 (UniProt Q96I24)	0.974 ± 0.033	0.952 ± 0.015	0.945 ± 0.034	0.977 ± 0.014	0.941 ± 0.015	0.926 ± 0.011
UniProt Q96SB8 and related entries	1.03 ± 0.029	1.04 ± 0.022	1.04 ± 0.014	1.05 ± 0.026	1.05 ± 0.027	1.03 ± 0.019
UniProt Q96EI5 and related entries	0.919 ± 0.078	0.961 ± 0.026	0.982 ± 0.047	0.935 ± 0.045	0.949 ± 0.064	0.982 ± 0.02
UniProt Q96FJ0 and related entries	1.12 ± 0.068	1.12 ± 0.13	1.2 ± 0.12	1.16 ± 0.14	1.22 ± 0.12	1.22 ± 0.15
REEP6 (UniProt Q96HR9)	0.908 ± 0.12	0.994 ± 0.028	0.978 ± 0.059	0.987 ± 0.029	1.02 ± 0.021	1.02 ± 0.023
UniProt Q96E29 and related entries	1.03 ± 0.073	1.06 ± 0.1	1.02 ± 0.057	1.08 ± 0.11	0.993 ± 0.029	1.01 ± 0.048
MARS2 (UniProt Q96GW9)	0.985 ± 0.097	0.998 ± 0.078	0.99 ± 0.1	0.966 ± 0.098	0.983 ± 0.088	0.982 ± 0.084
CRAMP1 (UniProt Q96RY5)	0.93 ± 0.01	0.88 ± 0.042	0.996 ± 0.11	0.948 ± 0.14	0.966 ± 0.13	0.99 ± 0.095
CHMP6 (UniProt Q96FZ7)	0.9385 ± 0.0037	0.921 ± 0.016	0.957 ± 0.015	0.938 ± 0.014	0.978 ± 0.1	0.912 ± 0.15
ZFP91 (UniProt Q96JP5)	1.01 ± 0.032	1.03 ± 0.064	1 ± 0.057	0.988 ± 0.021	0.994 ± 0.074	0.96 ± 0.028
UniProt Q96PY6 and related entries	1.03 ± 0.074	1.03 ± 0.06	1.03 ± 0.035	0.993 ± 0.065	1 ± 0.045	1 ± 0.048
CCDC127 (UniProt Q96BQ5)	0.965 ± 0.12	1 ± 0.048	0.98 ± 0.01	0.859 ± 0.04	0.984 ± 0.049	0.953 ± 0.066
UniProt Q96D96 and related entries	1.05 ± 0.072	1.01 ± 0.064	1.01 ± 0.091	1.02 ± 0.078	1.01 ± 0.068	1 ± 0.067
UniProt Q96MG7	1.01 ± 0.059	0.998 ± 0.034	1.01 ± 0.059	0.997 ± 0.061	1.02 ± 0.043	0.959 ± 0.053
UniProt Q96JG8 and related entries	1.05 ± 0.041	1.1 ± 0.019	1.06 ± 0.054	1.04 ± 0.13	1.1 ± 0.12	1.07 ± 0.094

A section of the results above, as a working copy:
Target	NP40-soluble protein abundance (concentration: 1mM)	NP40-soluble protein abundance (concentration: 2mM)	NP40-soluble protein abundance (concentration: 4mM)	NP40-soluble protein abundance (concentration: 6mM)	NP40-soluble protein abundance (concentration: 8mM)	NP40-soluble protein abundance (concentration: 10mM)
CRAMP1 (UniProt Q96RY5)	0.93 ± 0.01	0.88 ± 0.042	0.996 ± 0.11	0.948 ± 0.14	0.966 ± 0.13	0.99 ± 0.095
CHMP6 (UniProt Q96FZ7)	0.9385 ± 0.0037	0.921 ± 0.016	0.957 ± 0.015	0.938 ± 0.014	0.978 ± 0.1	0.912 ± 0.15
ZFP91 (UniProt Q96JP5)	1.01 ± 0.032	1.03 ± 0.064	1 ± 0.057	0.988 ± 0.021	0.994 ± 0.074	0.96 ± 0.028
